No constants are given. Whether binding was seen depends on the method and setting. Binding seen in cells or lysates may run through a third protein. Some binding calls cover weakened binding; strength is not graded here.
Target: lysosome-associated membrane protein 2A (LAMP2A) (UniProt P13473)
Assay: co-IP; lysate of LAMP2A-overexpressing cells (HepG2 treated with PA 300 µM for 12 h) in IP lysis buffer with protease inhibitors; anti-LAMP2A antibody overnight, Protein A/G magnetic beads 4 h at 4°C, five washes with lysis buffer

The chains behind the UniProt entries cited, without tags or fusion partners. Residues count along the entry.
UniProt P13473, residues 29-410: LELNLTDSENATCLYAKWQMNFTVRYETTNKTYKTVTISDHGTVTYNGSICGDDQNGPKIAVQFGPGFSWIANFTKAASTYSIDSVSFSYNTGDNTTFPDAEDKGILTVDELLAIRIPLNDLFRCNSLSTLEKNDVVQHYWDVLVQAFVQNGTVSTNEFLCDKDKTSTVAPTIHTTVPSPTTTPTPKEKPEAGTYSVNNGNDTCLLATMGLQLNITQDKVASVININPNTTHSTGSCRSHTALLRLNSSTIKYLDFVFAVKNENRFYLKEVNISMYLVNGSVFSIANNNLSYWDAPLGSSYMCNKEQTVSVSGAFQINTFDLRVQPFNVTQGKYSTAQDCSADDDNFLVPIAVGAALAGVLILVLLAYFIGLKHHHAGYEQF

binding: binds
B1: 3-hydroxy-3-methylglutaryl coenzyme A (HMGCR) (enzyme, UniProt P04035 1-888)
chain: MLSRLFRMHGLFVASHPWEVIVGTVTLTICMMSMNMFTGNNKICGWNYECPKFEEDVLSSDIIILTITRCIAILYIYFQFQNLRQLGSKYILGIAGLFTIFSSFVFSTVVIHFLDKELTGLNEALPFFLLLIDLSRASTLAKFALSSNSQDEVRENIARGMAILGPTFTLDALVECLVIGVGTMSGVRQLEIMCCFGCMSVLANYFVFMTFFPACVSLVLELSRESREGRPIWQLSHFARVLEEEENKPNPVTQRVKMIMSLGLVLVHAHSRWIADPSPQNSTADTSKVSLGLDENVSKRIEPSVSLWQFYLSKMISMDIEQVITLSLALLLAVKYIFFEQTETESTLSLKNPITSPVVTQKKVPDNCCRREPMLVRNNQKCDSVEEETGINRERKVEVIKPLVAETDTPNRATFVVGNSSLLDTSSVLVTQEPEIELPREPRPNEECLQILGNAEKGAKFLSDAEIIQLVNAKHIPAYKLETLMETHERGVSIRRQLLSKKLSEPSSLQYLPYRDYNYSLVMGACCENVIGYMPIPVGVAGPLCLDEKEFQVPMATTEGCLVASTNRGCRAIGLGGGASSRVLADGMTRGPVVRLPRACDSAEVKAWLETSEGFAVIKEAFDSTSRFARLQKLHTSIAGRNLYIRFQSRSGDAMGMNMISKGTEKALSKLHEYFPEMQILAVSGNYCTDKKPAAINWIEGRGKSVVCEAVIPAKVVREVLKTTTEAMIEVNINKNLVGSAMAGSIGGYNAHAANIVTAIYIACGQDAAQNVGSSNCITLMEASGPTNEDLYISCTMPSIEIGTVGGGTNLLPQQACLQMLGVQGACKDNPGENARQLARIVCGTVMAGELSLMAALAAGHLVKSHMIHNRSKINLQDLQGACTKKTA

Reference: PMC11807764
